PubChem BioAssay AID1259290 | Sanger Institute | 2017
The deposit covers 794 reagents; this is a random part of them. 9 of them (1.1%) were called active. 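Calls rest on knock-down alone, not drug synergy; synergy above 0.15 was grouped apart and does not affect calls.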 Unmarked entries are inactive. No viability above 1 is reported: the scale is capped. Not all columns of the deposit are shown. Not given: the amount of reagent, the time to read-out.

Assay: 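siRNA screen across the kinome seeking synthetic lethal partners for BYL719, cetuximab or trametinib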 (primary screen)
Cells: human SNUC1 colorectal cancer cells
Reagents: siRNA pool against human genes
Conditions: anchor drugs BYL719 1 µM, cetuximab 5 µg/ml or trametinib 10 nM, or DMSO vehicle alone
Read-out: 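Viability averaged over replicates and scaled to non-targeting siRNA, robust z-score with no drug, and synergy scores by drug for BYL719, cetuximab and trametinib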
Reading the numbers: viability z-score, siRNA alone: higher = more viable cells; low values mean essential gene; viability vs control, siRNA alone: higher = more viable cells; synergy score with BYL719 and synergy score with Cetuximab: higher = stronger synthetic lethal effect with drug
Call rule: 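Essential when the robust viability z-score with siRNA alone falls below -3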
Meaning of the calls: active = essential: knock-down alone cut viability (z below -3); inactive = no clear viability loss with knock-down alone

| target gene | viability z-score, siRNA alone | viability vs control, siRNA alone | synergy score with BYL719 | synergy score with Cetuximab |
| --- | --- | --- | --- | --- |
| RYK | 0.936 | 1 | -0.198 | -0.0447 |
| PRPS1L1 | 0.731 | 0.982 | -0.118 | -0.0299 |
| ETNK1 | 0.756 | 0.984 | -0.0959 | -0.0602 |
| TRIB3 | -0.204 | 0.897 | -0.136 | 0.0667 |
| CDK12 | 0.936 | 1 | -0.0333 | -0.0187 |
| MAPKAPK3 | 0.736 | 0.982 | -0.0306 | 0.0732 |
| CDK8 | 0.936 | 1 | -0.198 | -0.0447 |
| BMPR1B | -0.295 | 0.889 | -0.218 | -0.0678 |
| STK35 | -0.0417 | 0.912 | -0.0738 | 0.0326 |
| CDKN1A | 0.162 | 0.93 | -0.0495 | -0.0455 |
| PFKFB3 | 0.0891 | 0.924 | -0.0148 | 0.0671 |
| LMBR1 | -0.219 | 0.896 | -0.156 | -0.0742 |
| RFK | 0.936 | 1 | -0.18 | -0.0447 |
| MAP3K6 | -0.672 | 0.855 | -0.256 | 0.138 |
| EPHA4 | -0.919 | 0.833 | -0.0918 | 0.0712 |
| KSR1 | -1.19 | 0.809 | 0.118 | 0.125 |
| PBK | -0.462 | 0.874 | -0.084 | 0.132 |
| CAMKK1 | 0.666 | 0.976 | -0.135 | -0.0585 |
| AKT1 | 0.936 | 1 | -0.198 | 0.0126 |
| AMHR2 | 0.936 | 1 | -0.0284 | 0.0445 |
| PKIB | -1.03 | 0.823 | -0.278 | -0.0921 |
| FGFR1 | 0.663 | 0.975 | -0.215 | 0.0692 |
| CKMT2 | 0.936 | 1 | -0.166 | -0.0447 |
| TWF1 | 0.936 | 1 | -0.198 | 0.00118 |
| POLR2B | -0.101 | 0.907 | -0.201 | -0.0699 |
| TLK1 | -0.367 | 0.883 | 0.106 | 0.123 |
| UCKL1 | 0.936 | 1 | -0.156 | 0.0239 |
| BRD2 | 0.256 | 0.939 | -0.0621 | 0.00546 |
| PAK4 | 0.294 | 0.942 | -0.197 | 0.0167 |
| CLSPN | 0.936 | 1 | -0.148 | -0.0447 |
| STKLD1 | 0.936 | 1 | -0.0239 | 0.0455 |
| MAST2 | -0.484 | 0.872 | -0.159 | -0.0951 |
| DNMT3A | -2.81 | 0.662 | -0.0816 | 0.000674 |
| DCLK2 | 0.494 | 0.96 | 0.00977 | -0.0332 |
| BCOR | 0.936 | 1 | -0.193 | -0.0447 |
| TPK1 | 0.936 | 1 | 0.135 | 0.14 |
| PAK5 | 0.936 | 1 | 0.121 | 0.0618 |
| ALDH18A1 | -1.2 | 0.808 | -0.193 | -0.0363 |
| THNSL1 | -0.103 | 0.906 | -0.24 | -0.0891 |
| PIP4K2A | 0.0186 | 0.917 | -0.264 | -0.124 |
| PRKCH | 0.936 | 1 | -0.0571 | -0.0447 |
| NPR2 | 0.0842 | 0.923 | -0.149 | 0.0124 |
| ADCK2 | -0.185 | 0.899 | -0.154 | -0.141 |
| DMPK | 0.122 | 0.927 | -0.139 | 0.121 |
| RPS6KB1 | -0.0329 | 0.913 | -0.244 | -0.0582 |
| MAPK10 | 0.936 | 1 | -0.182 | -0.0447 |
| GNAS | 0.653 | 0.974 | 0.0394 | -0.0395 |
| WT1 | -0.473 | 0.873 | -0.0754 | 0.139 |
| ACVR2B | 0.936 | 1 | -0.155 | 0.0836 |
| CSK | -0.746 | 0.848 | -0.171 | -0.0252 |

Already shown: entries from further up.
| target gene | viability z-score, siRNA alone | viability vs control, siRNA alone | synergy score with BYL719 | synergy score with Cetuximab |
| --- | --- | --- | --- | --- |
| PAK5 | 0.936 | 1 | 0.121 | 0.0618 |
| ALDH18A1 | -1.2 | 0.808 | -0.193 | -0.0363 |
| THNSL1 | -0.103 | 0.906 | -0.24 | -0.0891 |
| PIP4K2A | 0.0186 | 0.917 | -0.264 | -0.124 |
| PRKCH | 0.936 | 1 | -0.0571 | -0.0447 |
| NPR2 | 0.0842 | 0.923 | -0.149 | 0.0124 |
| ADCK2 | -0.185 | 0.899 | -0.154 | -0.141 |
| DMPK | 0.122 | 0.927 | -0.139 | 0.121 |
